# The supplement of paper PMC10849652
# The chains behind the UniProt entries cited, without tags or fusion partners. Where a name states a change or a piece, a line headed by the entry shows the natural chain unless it says otherwise.
# UniProt P82980: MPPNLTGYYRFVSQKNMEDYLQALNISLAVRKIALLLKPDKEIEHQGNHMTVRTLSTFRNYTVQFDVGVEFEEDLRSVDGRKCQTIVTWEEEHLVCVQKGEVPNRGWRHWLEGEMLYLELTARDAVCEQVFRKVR
# UniProt Q9P260: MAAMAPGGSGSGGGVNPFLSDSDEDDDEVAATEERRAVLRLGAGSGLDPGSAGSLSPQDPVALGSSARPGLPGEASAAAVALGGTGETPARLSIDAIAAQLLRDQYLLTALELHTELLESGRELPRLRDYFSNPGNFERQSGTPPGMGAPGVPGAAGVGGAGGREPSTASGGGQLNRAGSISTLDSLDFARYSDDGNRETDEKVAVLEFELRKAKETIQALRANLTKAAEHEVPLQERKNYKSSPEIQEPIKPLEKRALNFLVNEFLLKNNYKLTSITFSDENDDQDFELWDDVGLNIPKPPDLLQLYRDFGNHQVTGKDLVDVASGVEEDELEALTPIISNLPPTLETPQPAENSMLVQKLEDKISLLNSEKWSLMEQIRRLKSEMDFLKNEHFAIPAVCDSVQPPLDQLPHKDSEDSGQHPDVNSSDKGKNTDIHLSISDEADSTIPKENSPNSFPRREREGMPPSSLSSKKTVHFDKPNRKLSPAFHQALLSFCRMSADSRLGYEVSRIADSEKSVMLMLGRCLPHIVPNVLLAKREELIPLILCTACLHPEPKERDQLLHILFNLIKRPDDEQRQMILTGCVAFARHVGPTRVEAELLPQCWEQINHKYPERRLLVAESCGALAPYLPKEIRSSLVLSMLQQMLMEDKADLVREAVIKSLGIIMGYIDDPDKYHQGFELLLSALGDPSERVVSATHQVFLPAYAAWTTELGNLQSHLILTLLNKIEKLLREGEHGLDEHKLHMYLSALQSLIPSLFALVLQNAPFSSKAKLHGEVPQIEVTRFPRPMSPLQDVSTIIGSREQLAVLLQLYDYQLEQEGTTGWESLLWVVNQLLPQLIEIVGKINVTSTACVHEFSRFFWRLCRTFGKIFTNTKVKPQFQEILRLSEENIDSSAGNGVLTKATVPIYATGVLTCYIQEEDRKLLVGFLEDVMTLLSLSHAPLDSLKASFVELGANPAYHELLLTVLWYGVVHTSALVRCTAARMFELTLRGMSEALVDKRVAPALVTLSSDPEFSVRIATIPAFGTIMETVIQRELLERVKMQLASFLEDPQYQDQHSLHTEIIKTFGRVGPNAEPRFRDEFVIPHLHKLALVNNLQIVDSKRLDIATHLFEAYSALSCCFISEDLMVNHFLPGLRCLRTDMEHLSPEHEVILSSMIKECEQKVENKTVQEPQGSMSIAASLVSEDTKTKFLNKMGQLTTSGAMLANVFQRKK
# UniProt Q9HCM1: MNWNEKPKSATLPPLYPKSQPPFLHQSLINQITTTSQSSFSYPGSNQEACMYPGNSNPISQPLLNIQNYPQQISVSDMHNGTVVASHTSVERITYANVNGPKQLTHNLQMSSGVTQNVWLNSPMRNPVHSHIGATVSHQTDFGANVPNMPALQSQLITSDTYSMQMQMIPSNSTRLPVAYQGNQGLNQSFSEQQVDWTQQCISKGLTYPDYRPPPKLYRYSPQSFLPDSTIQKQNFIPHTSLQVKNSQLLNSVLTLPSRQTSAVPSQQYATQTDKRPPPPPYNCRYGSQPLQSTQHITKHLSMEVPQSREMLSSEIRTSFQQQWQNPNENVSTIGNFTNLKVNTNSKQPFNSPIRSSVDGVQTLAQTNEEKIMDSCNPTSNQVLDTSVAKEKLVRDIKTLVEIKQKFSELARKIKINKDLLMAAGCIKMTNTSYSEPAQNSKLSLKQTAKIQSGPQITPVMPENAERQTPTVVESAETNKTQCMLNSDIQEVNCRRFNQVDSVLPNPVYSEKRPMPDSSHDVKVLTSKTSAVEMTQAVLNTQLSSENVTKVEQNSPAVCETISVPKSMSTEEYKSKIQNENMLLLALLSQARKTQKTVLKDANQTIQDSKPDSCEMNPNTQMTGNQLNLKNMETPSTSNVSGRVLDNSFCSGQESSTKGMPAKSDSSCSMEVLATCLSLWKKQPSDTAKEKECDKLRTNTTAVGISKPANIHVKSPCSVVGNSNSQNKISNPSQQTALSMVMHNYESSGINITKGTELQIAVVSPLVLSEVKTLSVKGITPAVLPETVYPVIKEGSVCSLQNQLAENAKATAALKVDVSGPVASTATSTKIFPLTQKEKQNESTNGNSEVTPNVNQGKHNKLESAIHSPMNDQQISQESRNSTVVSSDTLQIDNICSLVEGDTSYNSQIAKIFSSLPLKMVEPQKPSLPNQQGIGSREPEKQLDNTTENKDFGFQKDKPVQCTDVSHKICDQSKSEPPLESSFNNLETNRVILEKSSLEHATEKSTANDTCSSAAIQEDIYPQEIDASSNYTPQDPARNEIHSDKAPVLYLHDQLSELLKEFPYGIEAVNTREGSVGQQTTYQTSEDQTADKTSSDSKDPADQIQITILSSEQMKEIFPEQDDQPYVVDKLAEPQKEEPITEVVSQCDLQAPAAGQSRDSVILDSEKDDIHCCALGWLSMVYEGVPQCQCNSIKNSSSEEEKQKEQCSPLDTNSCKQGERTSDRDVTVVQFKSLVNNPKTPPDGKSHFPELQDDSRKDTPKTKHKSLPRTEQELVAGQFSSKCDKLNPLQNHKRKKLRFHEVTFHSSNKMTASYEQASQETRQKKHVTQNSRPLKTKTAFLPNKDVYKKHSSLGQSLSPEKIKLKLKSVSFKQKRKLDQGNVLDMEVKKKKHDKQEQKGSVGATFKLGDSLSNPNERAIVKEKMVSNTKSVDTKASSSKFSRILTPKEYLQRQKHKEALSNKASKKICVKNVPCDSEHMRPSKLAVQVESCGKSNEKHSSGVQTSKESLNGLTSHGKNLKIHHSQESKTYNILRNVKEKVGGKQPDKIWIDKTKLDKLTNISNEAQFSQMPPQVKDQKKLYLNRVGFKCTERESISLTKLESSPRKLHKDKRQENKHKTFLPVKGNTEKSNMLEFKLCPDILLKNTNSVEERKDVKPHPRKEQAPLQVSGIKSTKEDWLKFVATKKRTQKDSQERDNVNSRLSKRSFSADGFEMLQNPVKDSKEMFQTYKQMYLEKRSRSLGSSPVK
# UniProt Q8IUH3: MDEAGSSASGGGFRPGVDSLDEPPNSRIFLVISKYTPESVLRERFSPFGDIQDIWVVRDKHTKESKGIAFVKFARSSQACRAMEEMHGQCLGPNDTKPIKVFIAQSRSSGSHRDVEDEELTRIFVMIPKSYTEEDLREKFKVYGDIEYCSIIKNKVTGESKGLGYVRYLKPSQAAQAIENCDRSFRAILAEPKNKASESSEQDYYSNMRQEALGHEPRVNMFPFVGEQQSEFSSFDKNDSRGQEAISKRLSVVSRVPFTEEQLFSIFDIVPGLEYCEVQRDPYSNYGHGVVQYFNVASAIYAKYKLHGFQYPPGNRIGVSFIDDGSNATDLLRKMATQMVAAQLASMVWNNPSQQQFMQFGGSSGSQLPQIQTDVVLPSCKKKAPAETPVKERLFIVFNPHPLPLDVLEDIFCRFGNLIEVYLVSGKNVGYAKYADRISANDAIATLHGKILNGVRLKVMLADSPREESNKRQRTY
# UniProt P49796: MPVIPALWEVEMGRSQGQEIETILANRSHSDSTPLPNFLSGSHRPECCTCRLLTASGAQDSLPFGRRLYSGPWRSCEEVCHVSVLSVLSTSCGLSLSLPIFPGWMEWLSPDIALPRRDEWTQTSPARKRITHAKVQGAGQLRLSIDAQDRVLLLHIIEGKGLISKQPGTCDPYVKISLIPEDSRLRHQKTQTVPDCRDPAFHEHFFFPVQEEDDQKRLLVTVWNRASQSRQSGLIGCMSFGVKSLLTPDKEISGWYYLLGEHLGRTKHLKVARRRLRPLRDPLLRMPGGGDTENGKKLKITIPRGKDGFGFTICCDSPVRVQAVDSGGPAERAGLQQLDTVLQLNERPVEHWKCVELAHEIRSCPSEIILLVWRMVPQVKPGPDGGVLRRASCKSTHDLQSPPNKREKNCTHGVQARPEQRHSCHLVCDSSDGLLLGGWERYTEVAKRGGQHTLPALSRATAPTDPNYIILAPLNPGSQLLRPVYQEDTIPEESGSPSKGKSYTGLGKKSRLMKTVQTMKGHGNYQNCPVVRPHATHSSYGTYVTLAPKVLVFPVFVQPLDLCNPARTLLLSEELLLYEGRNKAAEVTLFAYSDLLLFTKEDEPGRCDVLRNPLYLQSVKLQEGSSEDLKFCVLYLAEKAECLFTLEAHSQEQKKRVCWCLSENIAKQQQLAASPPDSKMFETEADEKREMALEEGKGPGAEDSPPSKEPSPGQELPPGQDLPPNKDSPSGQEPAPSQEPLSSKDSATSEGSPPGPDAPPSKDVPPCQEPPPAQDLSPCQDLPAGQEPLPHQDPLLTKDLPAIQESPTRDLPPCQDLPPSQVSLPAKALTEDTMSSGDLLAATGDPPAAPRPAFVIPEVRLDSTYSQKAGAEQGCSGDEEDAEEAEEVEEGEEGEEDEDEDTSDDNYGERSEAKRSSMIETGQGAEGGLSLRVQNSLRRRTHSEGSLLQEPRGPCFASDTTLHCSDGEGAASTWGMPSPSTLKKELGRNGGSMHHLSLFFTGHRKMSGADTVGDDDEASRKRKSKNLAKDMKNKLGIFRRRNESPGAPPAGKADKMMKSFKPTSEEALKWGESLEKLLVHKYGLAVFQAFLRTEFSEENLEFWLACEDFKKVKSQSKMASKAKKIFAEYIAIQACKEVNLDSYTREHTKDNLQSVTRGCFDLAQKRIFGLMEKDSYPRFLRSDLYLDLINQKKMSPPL
# UniProt Q9Y388: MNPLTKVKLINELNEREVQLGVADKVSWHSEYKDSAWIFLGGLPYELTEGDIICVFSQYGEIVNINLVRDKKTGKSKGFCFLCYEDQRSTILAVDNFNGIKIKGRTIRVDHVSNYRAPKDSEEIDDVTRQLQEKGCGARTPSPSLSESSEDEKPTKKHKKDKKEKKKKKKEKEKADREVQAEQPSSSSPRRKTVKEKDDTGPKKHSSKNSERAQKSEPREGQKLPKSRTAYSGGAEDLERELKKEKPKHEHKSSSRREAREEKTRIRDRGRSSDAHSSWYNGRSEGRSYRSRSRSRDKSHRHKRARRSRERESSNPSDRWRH
# UniProt Q8NC44: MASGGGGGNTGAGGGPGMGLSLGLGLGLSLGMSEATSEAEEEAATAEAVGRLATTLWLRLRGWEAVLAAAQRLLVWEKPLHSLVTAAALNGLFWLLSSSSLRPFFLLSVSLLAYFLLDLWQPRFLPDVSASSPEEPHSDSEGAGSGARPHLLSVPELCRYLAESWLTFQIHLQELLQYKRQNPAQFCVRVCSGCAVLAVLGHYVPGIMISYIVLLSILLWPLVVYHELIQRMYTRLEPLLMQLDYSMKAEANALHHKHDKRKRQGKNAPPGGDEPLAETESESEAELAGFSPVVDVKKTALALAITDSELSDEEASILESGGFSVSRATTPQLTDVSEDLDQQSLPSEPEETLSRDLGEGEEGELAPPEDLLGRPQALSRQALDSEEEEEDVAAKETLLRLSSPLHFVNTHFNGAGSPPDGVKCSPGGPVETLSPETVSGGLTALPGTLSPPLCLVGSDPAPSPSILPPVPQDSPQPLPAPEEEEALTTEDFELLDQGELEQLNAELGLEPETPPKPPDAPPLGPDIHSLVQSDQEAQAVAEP
# UniProt Q8NDN9: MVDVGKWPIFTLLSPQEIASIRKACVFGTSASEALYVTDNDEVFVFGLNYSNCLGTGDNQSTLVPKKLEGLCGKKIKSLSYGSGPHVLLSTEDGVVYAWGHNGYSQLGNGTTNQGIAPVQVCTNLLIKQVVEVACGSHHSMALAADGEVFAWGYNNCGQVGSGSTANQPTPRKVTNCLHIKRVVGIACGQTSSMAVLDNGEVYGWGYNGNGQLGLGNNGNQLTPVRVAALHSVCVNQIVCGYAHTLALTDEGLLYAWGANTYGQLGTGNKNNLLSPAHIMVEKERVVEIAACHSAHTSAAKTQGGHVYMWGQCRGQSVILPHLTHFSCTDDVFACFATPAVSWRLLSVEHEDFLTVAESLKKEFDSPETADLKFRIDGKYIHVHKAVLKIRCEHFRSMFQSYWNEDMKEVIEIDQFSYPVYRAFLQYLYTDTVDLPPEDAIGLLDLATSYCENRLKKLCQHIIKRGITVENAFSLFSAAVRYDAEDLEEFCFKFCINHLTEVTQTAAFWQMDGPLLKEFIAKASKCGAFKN
# UniProt Q9H477: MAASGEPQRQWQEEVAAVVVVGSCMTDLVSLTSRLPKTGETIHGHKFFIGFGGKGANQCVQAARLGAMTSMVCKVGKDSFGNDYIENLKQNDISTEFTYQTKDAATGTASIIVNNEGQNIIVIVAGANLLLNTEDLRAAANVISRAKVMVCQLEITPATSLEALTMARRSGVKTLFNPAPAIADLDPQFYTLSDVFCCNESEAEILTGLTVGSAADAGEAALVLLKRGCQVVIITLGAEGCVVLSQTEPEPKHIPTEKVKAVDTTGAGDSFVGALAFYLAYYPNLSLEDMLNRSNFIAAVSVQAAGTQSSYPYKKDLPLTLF
# The other results are listed elsewhere or left out.
# Legend:
# Test in all cases: log2 fold change, soluble protein after heating vs DMSO (PISA); higher = thermal stabilisation; K562 lysate, 10 uM; active = over 0.2 and 3.5 SD of the protein, either way, in both replicates (recomputed)
# [1] = compound: CC1=C2C(=CC=C1)N=C(N(C2=O)C3=CC=CC=C3C)CN4C=NC5=C(N=CN=C54)N
# Method in brief: (§1)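 To prepare the extract, K562 pellets were dounce-homogenised in PBS pH 7.4 with 1 mM MgCl2, giving crude material at 1 mg/mL protein. This was treated with 10 μM compound for 30 min, then heated in aliquots for 3 min over 48°C-58°C before pooling and addition of NP-40 to 0.5% at 4°C. Centrifugation at 21,000xg for 90 min left soluble protein in the supernatant, which TMTpro 16plex LC-MS/MS quantified with equalised channel sums. Results are log-two fold changes in thermal stability compared with solvent controls, from duplicates.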
# [2] = compound: Cc1sc2c(c1C)C(c1ccc(Cl)cc1)=N[C@@H](CC(=O)OC(C)(C)C)c1nnc(C)n1-2
# Method in brief: as §1
# [3] = compound: c1ccc([C@@H]2C[C@H]2NC2CCNCC2)cc1
# Method in brief: as §1
# [4] = compound: C1=CC=C(C=C1)[C@H](COC2=CC3=C(C=C2)NC(=O)N3)NC(=O)C4=CC=CN(C4=O)CC5=CC(=C(C=C5)F)F
# Method in brief: as §1
# [5] = compound: CC1=C(SC2=C1C(=N[C@H](C3=NN=C(N32)C)CC(=O)N)C4=CC=C(C=C4)Cl)C
# Method in brief: as §1
target,measurement,setting,value
RBP5 (UniProt P82980),log2 fold change,[1],inactive: -0.065
same,log2 fold change,[2],inactive: 0.062
same,log2 fold change,[3],inactive: 0.103
RELCH (UniProt Q9P260),log2 fold change,[1],inactive: -0.129
same,log2 fold change,[2],inactive: 0.091
RESF1 (UniProt Q9HCM1),log2 fold change,[2],inactive: -0.011
RBM45 (UniProt Q8IUH3),log2 fold change,[3],inactive: -0.026
RGS14 (UniProt O43566),log2 fold change,[4],inactive: -0.006
same,log2 fold change,[5],inactive: 0.04
same,log2 fold change,[2],inactive: -0.006
same,log2 fold change,[3],inactive: -0.093
RGS3 (UniProt P49796),log2 fold change,[4],inactive: 0.001
same,log2 fold change,[5],inactive: -0.022
same,log2 fold change,[3],inactive: 0.069
REST (UniProt Q13127),log2 fold change,[1],inactive: -0.165
same,log2 fold change,[2],inactive: 0.039
RBFA (UniProt Q8N0V3),log2 fold change,[3],inactive: 0.015
RBMX2 (UniProt Q9Y388),log2 fold change,[1],inactive: 0.012
same,log2 fold change,[2],inactive: 0.105
RFX2 (UniProt P48378),log2 fold change,[4],inactive: 0.052
same,log2 fold change,[5],inactive: 0.258
same,log2 fold change,[2],inactive: -0.012
same,log2 fold change,[3],inactive: 0.282
RC3H2 (UniProt Q9HBD1),log2 fold change,[1],inactive: 0.114
same,log2 fold change,[2],inactive: -0.012
same,log2 fold change,[3],inactive: -0.075
RBM47,log2 fold change,[1],inactive: 0.01
same,log2 fold change,[2],inactive: -0.008
same,log2 fold change,[3],inactive: -0.175
RFX3 (UniProt P48380),log2 fold change,[4],inactive: -0.054
same,log2 fold change,[5],inactive: 0.182
same,log2 fold change,[2],inactive: -0.043
same,log2 fold change,[3],inactive: -0.013
RASSF3 (UniProt Q86WH2),log2 fold change,[3],inactive: -0.016
RBL2 (UniProt Q08999),log2 fold change,[4],inactive: 0.052
same,log2 fold change,[5],inactive: -0.059
same,log2 fold change,[2],inactive: -0.032
same,log2 fold change,[3],inactive: 0.048
RETREG2 (UniProt Q8NC44),log2 fold change,[4],inactive: -0.095
same,log2 fold change,[5],inactive: 0.016
same,log2 fold change,[1],inactive: 0.084
same,log2 fold change,[3],inactive: 0.004
RCBTB1 (UniProt Q8NDN9),log2 fold change,[3],inactive: 0.307
RHD (UniProt Q02161),log2 fold change,[2],inactive: -0.035
same,log2 fold change,[3],inactive: -0.067
RBKS (UniProt Q9H477),log2 fold change,[2],inactive: -0.367
same,log2 fold change,[3],inactive: -0.06

# Four entries from above, set out differently:
target	measurement	setting	value
RELCH (UniProt Q9P260)	log2 fold change	[1]	inactive: -0.129
same	log2 fold change	[2]	inactive: 0.091
RESF1 (UniProt Q9HCM1)	log2 fold change	[2]	inactive: -0.011
RBM45 (UniProt Q8IUH3)	log2 fold change	[3]	inactive: -0.026
